In article PMC12279241 one finds binding data, which are given here for two molecules.

The target of one assay is T1, TMCO3‐S85A (UniProt Q6UWJ1).
T1 sequence: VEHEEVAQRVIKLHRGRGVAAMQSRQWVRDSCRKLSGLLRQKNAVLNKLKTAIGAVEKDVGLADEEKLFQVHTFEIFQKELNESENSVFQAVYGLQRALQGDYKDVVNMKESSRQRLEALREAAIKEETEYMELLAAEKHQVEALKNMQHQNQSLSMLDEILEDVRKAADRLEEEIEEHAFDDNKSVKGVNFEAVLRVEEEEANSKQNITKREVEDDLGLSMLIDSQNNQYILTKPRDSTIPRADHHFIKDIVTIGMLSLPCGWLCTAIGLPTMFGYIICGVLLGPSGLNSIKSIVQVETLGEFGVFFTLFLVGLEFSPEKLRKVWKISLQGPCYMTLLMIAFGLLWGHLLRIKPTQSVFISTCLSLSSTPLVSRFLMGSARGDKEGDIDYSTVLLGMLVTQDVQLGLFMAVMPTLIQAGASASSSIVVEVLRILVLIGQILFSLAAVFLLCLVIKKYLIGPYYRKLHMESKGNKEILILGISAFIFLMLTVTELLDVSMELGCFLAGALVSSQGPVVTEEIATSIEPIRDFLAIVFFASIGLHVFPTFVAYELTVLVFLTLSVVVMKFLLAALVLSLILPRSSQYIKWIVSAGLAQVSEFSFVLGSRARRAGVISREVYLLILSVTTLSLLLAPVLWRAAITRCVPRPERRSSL
Nature of the assay: co-IP; IP after transfection of TMCO3-WT, TMCO3-S85A, TMCO3-S85D or control; cells not given.

Assay [1] addresses T2, TMCO3 (IP experiments whose cells are not stated) (UniProt Q6UWJ1).
T2 sequence: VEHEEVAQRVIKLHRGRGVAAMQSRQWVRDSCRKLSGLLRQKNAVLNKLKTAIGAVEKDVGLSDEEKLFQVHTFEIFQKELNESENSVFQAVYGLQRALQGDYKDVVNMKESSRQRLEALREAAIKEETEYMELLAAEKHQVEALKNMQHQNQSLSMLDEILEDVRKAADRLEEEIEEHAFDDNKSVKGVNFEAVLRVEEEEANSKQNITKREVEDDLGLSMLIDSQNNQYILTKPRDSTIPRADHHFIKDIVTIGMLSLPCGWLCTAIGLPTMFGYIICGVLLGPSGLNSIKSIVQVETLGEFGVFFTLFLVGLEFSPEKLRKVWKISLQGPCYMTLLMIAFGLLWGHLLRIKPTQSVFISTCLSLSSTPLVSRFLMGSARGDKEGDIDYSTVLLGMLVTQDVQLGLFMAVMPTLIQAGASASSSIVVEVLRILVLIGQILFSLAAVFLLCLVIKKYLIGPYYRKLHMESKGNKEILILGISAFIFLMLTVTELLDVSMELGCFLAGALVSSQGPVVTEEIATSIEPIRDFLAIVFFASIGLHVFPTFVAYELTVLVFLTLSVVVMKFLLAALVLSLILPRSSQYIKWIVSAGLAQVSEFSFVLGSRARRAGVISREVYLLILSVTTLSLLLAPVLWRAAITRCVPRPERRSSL
The assay is described as above.

The target of another assay is T3, TMCO3‐S85D (UniProt Q6UWJ1).
T3 sequence: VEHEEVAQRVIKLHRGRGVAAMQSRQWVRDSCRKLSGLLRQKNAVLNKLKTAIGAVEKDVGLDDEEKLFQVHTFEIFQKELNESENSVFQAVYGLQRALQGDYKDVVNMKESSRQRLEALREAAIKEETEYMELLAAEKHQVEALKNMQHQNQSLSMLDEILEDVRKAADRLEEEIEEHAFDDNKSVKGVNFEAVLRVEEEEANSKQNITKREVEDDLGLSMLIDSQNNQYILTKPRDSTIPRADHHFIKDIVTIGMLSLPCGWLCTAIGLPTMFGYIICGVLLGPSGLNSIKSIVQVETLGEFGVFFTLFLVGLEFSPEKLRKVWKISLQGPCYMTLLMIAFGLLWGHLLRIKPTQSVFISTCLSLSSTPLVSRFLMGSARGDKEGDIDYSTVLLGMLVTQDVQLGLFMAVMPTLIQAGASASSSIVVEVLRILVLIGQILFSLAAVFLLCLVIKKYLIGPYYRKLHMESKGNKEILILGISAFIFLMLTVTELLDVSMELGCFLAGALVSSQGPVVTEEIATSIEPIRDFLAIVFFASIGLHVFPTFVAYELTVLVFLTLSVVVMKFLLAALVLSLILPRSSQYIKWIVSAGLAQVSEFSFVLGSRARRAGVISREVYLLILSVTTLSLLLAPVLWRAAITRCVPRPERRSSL
Described as above.

In assay [2] the target is T2, TMCO3 (IP experiments whose cells are not stated). The experiment in a line: co-IP; IP assays with increasing IGF stimulation time and increasing dosage of TMCO3; cells not given.
The target in another assay is GST‐AKT. Nature of the assay: pull-down; GST pull-down; GST-AKT purified from E.coli, Flag-TMCO3 purified from 293T cells; both purified.

These are yes or no findings as the source states them, for the method shown. Binding calls can cover weak binding; strength is not graded here. For some assays here: In cells and extracts the contact can be indirect.

Regarding “AKT (IP experiments whose cells are not stated)”, the binding result (in the assay with TMCO3‐S85A; in assay [1]; in the assay with TMCO3‐S85D; in assay [2]) was “binds” throughout.

B1: TMCO3 (transmembrane and coiled‐coil domains 3), full length, expressed in 293T cells (protein, UniProt Q6UWJ1 23-677)
chain: VEHEEVAQRVIKLHRGRGVAAMQSRQWVRDSCRKLSGLLRQKNAVLNKLKTAIGAVEKDVGLSDEEKLFQVHTFEIFQKELNESENSVFQAVYGLQRALQGDYKDVVNMKESSRQRLEALREAAIKEETEYMELLAAEKHQVEALKNMQHQNQSLSMLDEILEDVRKAADRLEEEIEEHAFDDNKSVKGVNFEAVLRVEEEEANSKQNITKREVEDDLGLSMLIDSQNNQYILTKPRDSTIPRADHHFIKDIVTIGMLSLPCGWLCTAIGLPTMFGYIICGVLLGPSGLNSIKSIVQVETLGEFGVFFTLFLVGLEFSPEKLRKVWKISLQGPCYMTLLMIAFGLLWGHLLRIKPTQSVFISTCLSLSSTPLVSRFLMGSARGDKEGDIDYSTVLLGMLVTQDVQLGLFMAVMPTLIQAGASASSSIVVEVLRILVLIGQILFSLAAVFLLCLVIKKYLIGPYYRKLHMESKGNKEILILGISAFIFLMLTVTELLDVSMELGCFLAGALVSSQGPVVTEEIATSIEPIRDFLAIVFFASIGLHVFPTFVAYELTVLVFLTLSVVVMKFLLAALVLSLILPRSSQYIKWIVSAGLAQVSEFSFVLGSRARRAGVISREVYLLILSVTTLSLLLAPVLWRAAITRCVPRPERRSSL
As to B1, the binding result with GST‐AKT was “binds”.
